The values that follow come from paper PMC8206213, “An L-2-hydroxyglutarate biosensor based on specific transcriptional regulator LhgR” (Nature Communications, 2021).

Construct, isoform or probe ends are uncertain for at least one entry. For part of these data: Negatives hold for the conditions tested. For part of these data: The comparison behind a weaker result is the experiment's own reference, which may not be listed here. For part of these data: At least one verdict rests on a figure or table, not on a statement of the authors. For part of these data: Protein sequences can lack the tags named with them.

What all share (assay): EMSA
In data set [1] the test system is LHGFR0N3C (mTFP-LhgR-Venus) (Pseudomonas putida W619). As to conditions: EMSA: 10 mM Tris-HCl pH 7.4, 50 mM KCl, 0.5 mM EDTA, 10% glycerol, 1 mM DTT, 30 °C 30 min, 10 nM DNA; gel 6% native PAGE at 4 °C; recombinant protein; probe letters rebuilt from the primers and the genome. (In general: In EMSA bound probe runs differently from free probe, usually more slowly.)

Data set [2] concerns LHGFR0N7C (mTFP-LhgR-Venus) (Pseudomonas putida W619). As to conditions: EMSA: 10 mM Tris-HCl pH 7.4, 50 mM KCl, 0.5 mM EDTA, 10% glycerol, 1 mM DTT, 30 °C 30 min, 10 nM DNA; gel 6% native PAGE at 4 °C; recombinant protein; probe letters rebuilt from the primers and the genome.
Data set [3] has as its system T1, LhgR (Pseudomonas putida W619).
T1 sequence (looked up): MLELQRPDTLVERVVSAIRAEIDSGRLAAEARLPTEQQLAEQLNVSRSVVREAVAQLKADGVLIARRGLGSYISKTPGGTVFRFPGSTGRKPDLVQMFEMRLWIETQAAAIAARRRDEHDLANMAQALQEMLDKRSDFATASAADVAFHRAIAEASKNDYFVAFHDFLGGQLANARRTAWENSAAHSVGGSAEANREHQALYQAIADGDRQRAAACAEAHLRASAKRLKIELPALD
As to conditions: EMSA: 10 mM Tris-HCl pH 7.4, 50 mM KCl, 0.5 mM EDTA, 10% glycerol, 1 mM DTT, 30 °C 30 min, gel 6% native PAGE at 4 °C.

For the sequence “TACCCAGAGCTTGCTGCGACCCGGCAAGCTCTTTTTTTTTACGCATCCATTAGTCTGACAACCTGATAAGCAGATCCACCGACAAGAATCACAAGGTACCCCTGC (double strand) [F1 (lhgO promoter)]”, the binding result in data set [1] was “no binding”; in data set [2] it was “no binding”; in data set [3] (50 mM 2-KG, no release, 10 nM DNA, recombinant protein, residues 1-236, probe letters rebuilt from the primers and the genome) it was “binds”; in data set [3] (50 mM 5-aminovalerate, no release, 10 nM DNA, recombinant protein, residues 1-236, probe letters rebuilt from the primers and the genome) it was “binds”; in data set [3] (50 mM D-2-HG, no release, 10 nM DNA, recombinant protein, residues 1-236, probe letters rebuilt from the primers and the genome) it was “binds”; in data set [3] (50 mM L-2-HG, LhgR released from F1 (60 nM LhgR, 10 nM DNA), recombinant protein, residues 1-236, probe letters rebuilt from the primers and the genome), “binds more weakly”. Also, the binding result in data set [3] (50 mM L-lysine, no release, 10 nM DNA, recombinant protein, residues 1-236, probe letters rebuilt from the primers and the genome) was “binds”; in data set [3] (50 mM glutarate, no release, 10 nM DNA, recombinant protein, residues 1-236, probe letters rebuilt from the primers and the genome) it was “binds”; in data set [3] (50 mM succinate, no release, 10 nM DNA, recombinant protein, residues 1-236, probe letters rebuilt from the primers and the genome), “binds”; in data set [3] (no ligand, complete shift at 8-fold molar excess (10 nM DNA), recombinant protein, residues 1-236, probe letters rebuilt from the primers and the genome), “binds”.

As for “AAGTCTGCCTGACGCGGCCGTCCAACCGCGGACCGGTGGCTTCTCTGCGCGAGACGGCTCACCGGTGCGAGGGCCATGCCTGGCAACGCACACCTGATCGAAACGATTGACATCCCATACCCGCCACAGGCATTGTCTGACAACCTGACCACTAGGCAATCGCTTCC (double strand) [F2 (lhgR promoter)]”, the binding result in data set [3] (L-2-HG, 10 nM DNA, recombinant protein, residues 1-236, probe letters rebuilt from the primers and the genome) was “binds more weakly”; in data set [3] (no ligand, 10 nM DNA, recombinant …, residues 1-236, probe letters rebuilt from the primers and the genome), “binds”.
